Taken from: PubChem BioAssay AID1671195 (Yale University, 2021)
This is one part, drawn at random, of about 22,000 deposited reagents. In the full data, about 1,510 (6.9%) are marked active. 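Active includes knockdowns raising or lowering LDL uptake; positive z-scores mean more uptake, negative mean less.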

Screen: 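Knockdowns that increase or decrease uptake of fluorescent LDL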 (primary screen)
Cells: human Huh7 hepatoma cells
Knock-down reagent: siRNA pool against human genes, 18 nM
Timing: about 2 to 2.5 days of knockdown, then 8 h LDL uptake
Conditions: DiI-labelled LDL at 30 µg/ml for 8 h, in lipoprotein-deficient serum medium
Measurement: 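Fluorescent LDL signal imaged in cells, scaled to the plate median, robust z-score for each replicate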
Scale: robust z-score: higher = more LDL uptake after knockdown
Rule for the call: 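Active when two or more replicates show a robust z-score above 2 or below -2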

target gene | robust z-score, replicate 1 | robust z-score, replicate 2 | robust z-score, replicate 3 | outcome
JRKL (JRK like) | 0.238 | -0.353 | 0.391 | inactive
CX3CR1 (C-X3-C motif chemokine receptor 1) | -2.08 | -0.0233 | 0.905 | inactive
POLE (DNA polymerase epsilon, catalytic subunit) | -1.42 | -1.23 | -0.808 | inactive
TCF7L1 (transcription factor 7 like 1) | -0.0625 | 0.0242 | -0.149 | inactive
SERPINB10 (serpin family B member 10) | 0.0506 | -0.601 | -0.891 | inactive
WNT7A (Wnt family member 7A) | 0.938 | 2.9 | 2.44 | active
SPTAN1 (spectrin alpha, non-erythrocytic 1) | 0.972 | 2.8 | 2.95 | active
CHLSN (cholesin) | -0.791 | -0.407 | -0.438 | inactive
STK31 (serine/threonine kinase 31) | 1.28 | 1.65 | 1.19 | inactive
LOC151363 (retired record) | -0.354 | -1.42 | -0.00549 | inactive
NUDT13 (nudix hydrolase 13) | 0.913 | -1.21 | -0.369 | inactive
HM13 (histocompatibility minor 13) | -0.782 | -0.738 | -0.714 | inactive
ZNF284 (zinc finger protein 284) | 0.184 | 0.219 | 0.466 | inactive
GABRA4 (gamma-aminobutyric acid type A receptor subunit alpha4) | -0.911 | -0.671 | -0.55 | inactive
SLC36A1 | -1.77 | -2.04 | -1.63 | inactive
NFAM1 (NFAT activating protein with ITAM motif 1) | 0.227 | -0.184 | 0.217 | inactive
LHFPL3 (LHFPL tetraspan subfamily member 3) | -1.06 | -0.706 | -0.779 | inactive
LOC441968 (retired record) | -0.693 | -0.96 | -0.823 | inactive
C1orf105 (chromosome 1 open reading frame 105) | -0.585 | -1.83 | -1.44 | inactive
LSR (lipolysis stimulated lipoprotein receptor) | 0.205 | -1 | 0.81 | inactive
MGC70870 (C-terminal binding protein 2 pseudogene) | -1.18 | -1.37 | -2.18 | inactive
ATP6AP1L (ATPase H+ transporting accessory protein 1 like (pseudogene)) | 1.04 | 0.137 | 0.931 | inactive
LOC284409 (retired record) | 0.449 | 0.669 | 1.01 | inactive
RAD51 (RAD51 recombinase) | 2.61 | -2.39 | 2.98 | active
DDX10 (DEAD-box helicase 10) | 0.533 | -0.329 | 0.207 | inactive
TSHZ3 (teashirt zinc finger homeobox 3) | 0.533 | 1.39 | 0.483 | inactive
PLCE1 (phospholipase C epsilon 1) | 0.026 | 0.849 | 1.32 | inactive
TBC1D16 (TBC1 domain family member 16) | -0.539 | -0.677 | -0.344 | inactive

Part of the list above in another layout:
GABRA4 (gamma-aminobutyric acid type A receptor subunit alpha4)
- robust z-score, replicate 1: -0.911
- robust z-score, replicate 2: -0.671
- robust z-score, replicate 3: -0.55
- outcome: inactive

SLC36A1
- robust z-score, replicate 1: -1.77
- robust z-score, replicate 2: -2.04
- robust z-score, replicate 3: -1.63
- outcome: inactive
